This is one part of the list.
Key:
Assay in all cases: log2 fold change, soluble protein after heating vs DMSO (PISA); higher = thermal stabilisation; K562 lysate, 10 uM; active = over 0.2 and 3.5 SD of the protein, either way, in both replicates (recomputed)
[1] = compound: NCC(=O)Nc1ccc(-n2nc(C(F)(F)F)cc2-c2ccc3c(ccc4ccccc43)c2)cc1
How it was run: (§1)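 The values are log-two fold changes in thermal stability compared with solvent controls and come from duplicates. They were obtained by TMTpro 16plex LC-MS/MS, with channel sums equalised, on the supernatant after 21,000xg for 90 min. That supernatant came from crude K562 extract at 1 mg/mL protein treated with 10 μM compound for 30 min, heated for 3 min across 48°C-58°C, pooled and brought to 0.5% NP-40 at 4°C.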

Chains of the proteins cited; added tags and fusions are not shown. Lines headed by an entry give the natural chain unless they say otherwise; changes in a name come on top.
UniProt Q5SVS4: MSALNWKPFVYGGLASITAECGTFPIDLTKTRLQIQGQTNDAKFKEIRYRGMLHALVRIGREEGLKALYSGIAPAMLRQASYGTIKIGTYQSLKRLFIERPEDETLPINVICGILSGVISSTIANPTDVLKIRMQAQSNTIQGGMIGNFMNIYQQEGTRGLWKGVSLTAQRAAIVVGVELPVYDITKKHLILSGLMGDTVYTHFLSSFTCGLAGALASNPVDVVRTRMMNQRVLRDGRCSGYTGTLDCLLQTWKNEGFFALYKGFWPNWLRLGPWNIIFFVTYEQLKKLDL
UniProt Q9NVC3: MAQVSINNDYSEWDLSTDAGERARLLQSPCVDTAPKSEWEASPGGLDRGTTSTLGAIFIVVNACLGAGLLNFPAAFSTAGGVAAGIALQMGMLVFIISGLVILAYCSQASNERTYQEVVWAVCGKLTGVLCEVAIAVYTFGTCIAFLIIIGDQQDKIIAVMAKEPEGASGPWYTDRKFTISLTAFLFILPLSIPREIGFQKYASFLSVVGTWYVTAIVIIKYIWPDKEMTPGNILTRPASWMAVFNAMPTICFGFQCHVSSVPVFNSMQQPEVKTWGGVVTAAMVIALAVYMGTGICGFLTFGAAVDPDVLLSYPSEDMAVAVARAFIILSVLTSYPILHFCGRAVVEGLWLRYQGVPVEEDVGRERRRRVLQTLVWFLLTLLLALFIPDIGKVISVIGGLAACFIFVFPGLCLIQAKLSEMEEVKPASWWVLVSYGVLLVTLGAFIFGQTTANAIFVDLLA
UniProt Q8N357: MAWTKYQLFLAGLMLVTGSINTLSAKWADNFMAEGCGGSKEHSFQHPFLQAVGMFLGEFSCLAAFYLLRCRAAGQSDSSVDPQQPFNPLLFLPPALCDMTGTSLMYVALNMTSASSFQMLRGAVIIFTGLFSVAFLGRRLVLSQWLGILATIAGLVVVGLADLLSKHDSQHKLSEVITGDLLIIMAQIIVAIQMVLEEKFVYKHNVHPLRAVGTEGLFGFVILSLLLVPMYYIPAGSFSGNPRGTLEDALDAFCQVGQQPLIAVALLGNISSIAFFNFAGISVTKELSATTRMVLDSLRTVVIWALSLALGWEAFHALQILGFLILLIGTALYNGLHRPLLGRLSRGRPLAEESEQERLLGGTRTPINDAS
UniProt Q9UJS0: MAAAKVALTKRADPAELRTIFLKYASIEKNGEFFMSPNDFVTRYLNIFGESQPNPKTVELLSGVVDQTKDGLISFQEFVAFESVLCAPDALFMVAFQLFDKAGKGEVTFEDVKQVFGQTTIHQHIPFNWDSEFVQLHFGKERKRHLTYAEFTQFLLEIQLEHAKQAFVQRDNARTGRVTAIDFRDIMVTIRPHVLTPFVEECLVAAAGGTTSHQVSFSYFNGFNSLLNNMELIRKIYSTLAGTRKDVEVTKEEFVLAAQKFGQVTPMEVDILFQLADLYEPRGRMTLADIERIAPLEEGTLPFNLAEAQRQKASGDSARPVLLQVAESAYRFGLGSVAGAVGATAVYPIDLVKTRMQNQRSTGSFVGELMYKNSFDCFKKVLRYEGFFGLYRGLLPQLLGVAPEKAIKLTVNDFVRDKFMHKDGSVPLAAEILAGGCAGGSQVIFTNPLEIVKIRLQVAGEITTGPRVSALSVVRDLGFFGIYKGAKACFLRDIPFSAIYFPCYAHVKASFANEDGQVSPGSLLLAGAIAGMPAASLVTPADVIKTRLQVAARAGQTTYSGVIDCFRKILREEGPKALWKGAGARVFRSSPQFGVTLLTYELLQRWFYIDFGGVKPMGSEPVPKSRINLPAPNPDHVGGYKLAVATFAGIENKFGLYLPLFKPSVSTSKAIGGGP
UniProt O15198: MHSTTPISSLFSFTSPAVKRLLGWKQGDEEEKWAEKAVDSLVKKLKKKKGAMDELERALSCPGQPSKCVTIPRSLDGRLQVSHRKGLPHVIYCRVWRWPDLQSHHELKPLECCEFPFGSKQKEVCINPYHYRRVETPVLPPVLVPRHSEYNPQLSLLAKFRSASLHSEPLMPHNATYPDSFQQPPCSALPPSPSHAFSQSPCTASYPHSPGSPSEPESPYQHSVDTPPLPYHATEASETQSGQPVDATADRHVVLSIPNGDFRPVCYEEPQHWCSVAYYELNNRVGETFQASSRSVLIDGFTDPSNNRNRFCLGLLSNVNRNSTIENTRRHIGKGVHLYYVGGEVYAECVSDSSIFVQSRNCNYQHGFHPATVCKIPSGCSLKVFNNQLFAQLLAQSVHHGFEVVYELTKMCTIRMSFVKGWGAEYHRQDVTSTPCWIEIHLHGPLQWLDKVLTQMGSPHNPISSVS
UniProt Q9BWU0: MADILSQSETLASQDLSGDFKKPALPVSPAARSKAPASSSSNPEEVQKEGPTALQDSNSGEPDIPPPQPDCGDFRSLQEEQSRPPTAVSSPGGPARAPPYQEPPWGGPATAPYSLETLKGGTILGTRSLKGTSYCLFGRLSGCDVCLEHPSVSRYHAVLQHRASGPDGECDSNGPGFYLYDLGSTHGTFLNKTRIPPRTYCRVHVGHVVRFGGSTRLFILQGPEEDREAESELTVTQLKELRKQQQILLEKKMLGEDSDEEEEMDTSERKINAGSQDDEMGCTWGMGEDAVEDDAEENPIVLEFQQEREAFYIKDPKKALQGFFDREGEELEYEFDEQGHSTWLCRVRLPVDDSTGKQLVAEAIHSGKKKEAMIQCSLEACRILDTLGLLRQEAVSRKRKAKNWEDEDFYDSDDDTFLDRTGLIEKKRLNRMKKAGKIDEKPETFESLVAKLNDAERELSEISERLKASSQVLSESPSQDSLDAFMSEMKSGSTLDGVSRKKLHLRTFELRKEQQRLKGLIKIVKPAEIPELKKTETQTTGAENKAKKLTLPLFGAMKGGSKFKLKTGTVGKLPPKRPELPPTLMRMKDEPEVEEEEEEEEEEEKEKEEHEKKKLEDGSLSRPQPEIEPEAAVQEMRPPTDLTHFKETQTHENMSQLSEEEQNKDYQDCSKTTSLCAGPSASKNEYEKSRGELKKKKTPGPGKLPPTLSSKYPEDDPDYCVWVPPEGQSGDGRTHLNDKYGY
UniProt Q9H1N7: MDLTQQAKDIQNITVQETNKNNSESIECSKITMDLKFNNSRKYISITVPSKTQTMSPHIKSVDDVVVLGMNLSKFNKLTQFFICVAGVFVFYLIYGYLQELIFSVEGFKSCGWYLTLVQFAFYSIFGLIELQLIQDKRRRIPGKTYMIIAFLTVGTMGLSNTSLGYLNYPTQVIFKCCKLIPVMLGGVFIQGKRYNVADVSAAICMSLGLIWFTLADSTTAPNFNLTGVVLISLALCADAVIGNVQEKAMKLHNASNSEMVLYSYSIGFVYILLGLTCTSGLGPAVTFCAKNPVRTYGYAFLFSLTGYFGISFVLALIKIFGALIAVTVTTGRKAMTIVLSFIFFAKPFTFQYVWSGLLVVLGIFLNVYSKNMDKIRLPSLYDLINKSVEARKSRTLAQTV
UniProt Q92504: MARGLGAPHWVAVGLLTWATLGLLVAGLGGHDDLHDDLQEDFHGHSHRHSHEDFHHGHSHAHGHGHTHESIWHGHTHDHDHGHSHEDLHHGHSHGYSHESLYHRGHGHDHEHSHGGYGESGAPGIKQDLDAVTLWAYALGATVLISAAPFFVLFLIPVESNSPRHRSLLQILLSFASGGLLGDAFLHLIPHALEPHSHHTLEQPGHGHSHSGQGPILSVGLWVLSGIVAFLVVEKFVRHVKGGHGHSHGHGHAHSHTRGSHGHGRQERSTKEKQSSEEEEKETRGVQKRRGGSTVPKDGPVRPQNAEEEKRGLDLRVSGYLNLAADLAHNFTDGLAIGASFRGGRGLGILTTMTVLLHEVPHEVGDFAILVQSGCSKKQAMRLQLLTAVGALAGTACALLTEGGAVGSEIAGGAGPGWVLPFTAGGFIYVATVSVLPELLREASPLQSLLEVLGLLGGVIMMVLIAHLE
UniProt O95391: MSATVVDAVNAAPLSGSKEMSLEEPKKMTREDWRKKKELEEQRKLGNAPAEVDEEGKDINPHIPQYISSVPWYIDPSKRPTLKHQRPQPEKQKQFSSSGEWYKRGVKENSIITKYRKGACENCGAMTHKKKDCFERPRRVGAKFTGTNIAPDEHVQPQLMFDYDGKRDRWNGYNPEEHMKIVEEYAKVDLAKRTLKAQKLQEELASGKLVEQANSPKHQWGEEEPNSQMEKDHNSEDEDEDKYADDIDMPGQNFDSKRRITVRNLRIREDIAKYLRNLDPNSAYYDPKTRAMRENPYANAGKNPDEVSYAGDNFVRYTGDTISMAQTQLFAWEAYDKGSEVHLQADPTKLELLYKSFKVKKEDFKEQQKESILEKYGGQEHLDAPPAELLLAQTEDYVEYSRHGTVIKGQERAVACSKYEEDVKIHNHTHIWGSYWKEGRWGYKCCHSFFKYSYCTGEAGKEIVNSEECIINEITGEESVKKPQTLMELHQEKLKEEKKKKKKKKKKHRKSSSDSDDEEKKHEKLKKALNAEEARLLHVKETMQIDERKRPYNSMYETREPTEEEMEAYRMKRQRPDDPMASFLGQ

vorinostat = compound: O=C(CCCCCCC(=O)Nc1ccccc1)NO [vorinostat]
How it was run: as §1

silmitasertib = compound: O=C(O)c1ccc2c(c1)nc(Nc1cccc(Cl)c1)c1ccncc12 [silmitasertib]
How it was run: as §1

[2] = compound: O=C1NC(=O)C(c2cnc3ccccn23)=C1c1cn2c3c(cc(F)cc13)CN(C(=O)N1CCCCC1)CC2
How it was run: as §1

entospletinib = compound: c1cn2cc(-c3ccc4cn[nH]c4c3)nc(Nc3ccc(N4CCOCC4)cc3)c2n1 [entospletinib]
How it was run: as §1

| Target | log2 fold change [1] | log2 fold change (vorinostat) | log2 fold change (silmitasertib) | log2 fold change [2] | log2 fold change (entospletinib) |
| --- | --- | --- | --- | --- | --- |
| SLC25A30 (UniProt Q5SVS4) | inactive: -0.082 | inactive: -0.008 | inactive: -0.032 | inactive: -0.021 |  |
| SLC38A7 (UniProt Q9NVC3) | inactive: 0 | inactive: 0.117 | inactive: 0.057 | inactive: -0.007 | inactive: 0.02 |
| SLC35F6 (UniProt Q8N357) | inactive: -0.075 | inactive: -0.006 | inactive: -0.01 | inactive: -0.018 | inactive: -0.012 |
| SLC25A13 isoform 2 (UniProt Q9UJS0) | inactive: 0.01 | inactive: 0.053 | inactive: -0.033 | inactive: -0.022 | inactive: 0.023 |
| SMAD9 (UniProt O15198) | inactive: 0.007 | active: -0.436 | inactive: 0.023 | inactive: -0.012 | inactive: 0.017 |
| SLC4A1AP (UniProt Q9BWU0) | inactive: 0.011 | inactive: -0.007 | inactive: -0.03 | inactive: 0.01 | inactive: -0.01 |
| SLC35B3 (UniProt Q9H1N7) | inactive: -0.033 | inactive: 0.036 | inactive: -0.033 | inactive: -0.046 |  |
| SLC39A7 (UniProt Q92504) | inactive: 0.05 | inactive: -0.073 | inactive: -0.018 | inactive: 0.012 | inactive: 0.001 |
| SLU7 (UniProt O95391) | inactive: 0.208 | inactive: 0.012 | inactive: -0.037 | inactive: 0.046 | inactive: -0.024 |
